# Experimental data reported in PubChem BioAssay AID2685 (National Center for Advancing Translational Sciences (NCATS), 2010).
# The campaign covered roughly 320,000 compounds. About 2,100 (0.66%) were called active. Inconclusive means that the source gave no clear call. Such entries were picked first, then a sample of the others. Calls come from the whole dose curve; as a rule, active = well fitted inhibition curve with a large enough effect in the signal ratio, with a control signal flat (not every such curve was filed as active); inconclusive = small, poorly fitted or top-dose-only effect, or effect the other way, or a change in a side signal; inactive = flat fitted curve, though single readings scatter; the % refers to the signal ratio. Potencies of inconclusive entries are doubtful fits and often do not repeat.
# Experiment: qHTS Assay for Lipid Storage Modulators in Drosophila S3 Cells
# Conditions: BODIPY lipid droplet fluorescence, 18-24 h, cells fed with added oleic acid; lipid storage change, negative = inhibition: at 46.1 µM (top of the series) unless noted
# Excerpt: NIH Molecular Libraries Probe Production Centers Network [MLPCN] NIH Chemical Genomics Center [NCGC] MLPCN Grant: 1 R03 MH085686-01 Assay Submitter (PI): Beller, Mathias; Max-Planck-Institut fur Biophysikalische Chemie NCGC Assay Overview: Storing lipids as a reservoir for energy or the anabolism of elementary metabolites is a common feature of probably all cells and is conserved from bacteria to humans. The universal cellular lipid storage organelle is the so-called lipid storage droplet (LD). Although ubiquitous, LDs share a simple structure composed of a hydrophobic core that harbors the storage lipids, which is shielded by a droplet-specific phospholipid monolayer to which proteins are attached. The current model of LD biogenesis involves an incorporation of the lipid core into the membrane leaflets of the endoplasmic reticulum (ER) followed by a subsequent budding-like maturation of a LD, which ultimately pinches off. Once released, LD volume can increase by localized lipogenesis or fusion of existing droplet. Storage lipids are re-mobilized enzymatically by lipase activity. Lipase regulation in the adipocyte is heavily studied and involves multiple components including catecholamine signaling, the LD-associated proteins Perilipin and comparative gene identification (CGI-58) and at least two lipases named hormone sensitive lipase (HSL) and adipocyte triglyceride lipase (ATGL). LD regulation outside of the adipocyte is poorly understood and only few components are known. However, there is an urgent need to learn more about ectopic fat depots as mislocalized storage of lipids, for example in the liver or muscle, is an eminent health problem associated with insulin resistance or the metabolic syndrome. We developed a laser-scanning cytometer assay to enable 1,536-well screening and combined the results of the small molecules screen with an RNAi database based on lipid storage.
# Triacsin C (Sigma-Aldrich T-4540), an inhibitor of long-chain fatty acyl CoA synthetase that blocks synthesis of triglycerides, was used as a positive control for lipid under-storage. A total of 23 nL of compound solution of different concentrations were transferred to the assay plates using a Kalypsys pin tool equipped with a 1,536-pin array containing 10-nL slotted pins (FP1S10, 0.457-mm diameter, 50.8 mm long; V&P Scientific). One microliter of oleic acid (400 uM) was added, and the plate was lidded with stainless steel rubber gasket lined lids containing pinholes. […] Fluorescence was detected by excitation of the fluorophores with a 488-nm laser on an Acumen Explorer (TTP Lab Tech). The total intensity in channel 2 (500-530 nm) reflected lipid droplet accumulation. Cells were detected using channel 3 (575-640 nm) with 5-um width and 100-um depth filters. The ratio of the number of objects in PMT channel 2 over the number of objects in PMT channel 3 was also calculated. Percent activity was computed relative to an internal control (100% inhibited lipid droplet deposition due to the presence of 20 uM Triacsin C), which was added to 32 wells/plate.
# % is set by controls: 0 for no effect and ±100 for the full control effect; potency is the fitted concentration of half-maximal effect.
Structure (SMILES),"lipid storage change, negative = inhibition",Potency
CCOC(=O)C1=C(O)C(Nc2nccs2)(C(F)(F)F)N=C1C (stereo not drawn),inconclusive: -35.8%,–
COc1ccc(C(=O)NCc2ccc(C)cc2)cc1S(=O)(=O)N1CCCC1,inconclusive: -46.6%,–
O=S(=O)(c1ccc(SCCOc2ccc(Cl)cc2)nc1)N1CCCC1,–,"inconclusive: 0.651 µM [activator, partial curve, poor fit]"
COC(=O)CNC(=O)C1Cc2ccccc2CN1S(=O)(=O)c1cccs1 (stereo not drawn),inconclusive: -22.6%,–
Cc1nn(CC(=O)NCCc2cccs2)c(=O)c2cc3ccccc3n12,–,"inconclusive: 29.1 µM [activator, single point]"
CC(C)N(C(=S)Nc1cccc(S(=O)(=O)N(C)C)c1)c1ccccc1,inconclusive: -0.305%,–
Cc1ccc(NC(=O)CN2CCN(C(=O)C3CCCO3)CC2)c(C)c1 (stereo not drawn),inconclusive: 30.5%,–
COCC(=O)Nc1nnc(COc2ccc(Cl)cc2)s1,inactive: 1.56%,–
COc1cc(OC)c(S(=O)(=O)NCc2ccco2)cc1S(=O)(=O)NCc1ccco1,inconclusive: -39.2%,–
CN(CCC#N)C(=O)COC(=O)c1ccc2c(c1)C(=O)N(C1CCCCC1)C2=O,inconclusive: -79.6% [cytotoxic],–
O=C(NCC(=O)N(c1cccnc1)C(C(=O)NC1CCCC1)c1ccc(F)cc1)c1ccco1 (stereo not drawn),inconclusive: 0.94% [at 9.22 µM],–
COc1ccc(N2C(=O)CC(C3CCCO3)C2=O)cc1 (stereo not drawn),inconclusive: 22%,–
O=C(C1CC1)N1CCc2cc(Br)cc(S(=O)(=O)NCCCN3CCCC3)c21,–,"inconclusive: 2.91 µM [falling, single point]"
COc1ccc(NC(=O)CN(C)C(=O)c2cccnc2Sc2ccc(C)c(C)c2)cc1,inconclusive: 24.6%,–
Cn1cccc1C(=O)OCC(=O)Nc1ccc2c(c1)CCC2,inconclusive: 18.6%,–
CN(CCCC(=O)Nc1ccc(Br)cc1F)S(=O)(=O)c1ccccc1,–,"inconclusive: 7.31 µM [falling, partial curve]"
Fc1c(F)c(C(F)(F)F)c(F)c(F)c1N1CCN(c2ccc3nnc(C(F)(F)F)n3n2)CC1,inconclusive: -2.67%,–
O=C(NC1CCN(C(=O)Nc2ccccc2)CC1)C1CCCCC1,–,"inconclusive: 0.0082 µM [falling, full curve, poor fit]"
Cc1ccc(CNC(=O)c2cc(-c3ccccc3)n(Cc3cc(C)no3)n2)cc1,–,"inconclusive: 29.1 µM [falling, single point]"
O=C(CN1CCN(c2ccccn2)CC1)Nc1cc(F)ccc1F,inconclusive: -10.4%,–
CSc1nnc(-c2cc(Br)ccc2N=Cc2c(C)[nH]n(-c3ccccc3)c2=O)c(=O)[nH]1,inconclusive: -26.9% [at 9.22 µM],–
Cc1ccc(OCCC(=O)Nc2ccc(S(=O)(=O)Nc3nccs3)cc2)cc1,–,"inconclusive: 13 µM [activator, partial curve]"
Cc1ccc(-c2nc(NC(=O)CSc3nnc4scc(-c5ccccc5)n34)ns2)cc1,inconclusive: -6.88%,–
Cn1c(/C=N/NC(=O)c2ccccc2)nc2ccccc21,inconclusive: -53%,–
CC(=O)Nc1sc2c(c1C#N)CC(C)(C)NC2(C)C,–,"inconclusive: 23.1 µM [falling, single point]"
O=C(CC1Sc2ccccc2NC1=O)NCc1ccc(Cl)cc1 (stereo not drawn),inconclusive: -7.62%,–

Structure (SMILES),"lipid storage change, negative = inhibition",Potency
O=C(Nc1ccccc1)c1cc2c(=O)c3ccccc3oc2nc1C(F)(F)F,inconclusive: 7.17%,–
CCOC(=O)C1=c2/c(=C/c3ccncc3)c(N)c(C(=O)OC)n2C(=O)C(c2ccncc2)S1 (stereo not drawn),inconclusive: -17.5%,–
Cc1c(C(=O)N2CCN(C)CC2)oc2c1C(=O)CC(C)(C)C2,inconclusive: -53.1%,–
CCOC(=O)CC(=O)CSc1nc2ccc(C)cc2cc1C#N,inconclusive: 25.9%,–
CCOC(=O)c1cnc2ccc(OCC)cc2c1NCc1ccccc1OC,inconclusive: 12%,–
CC(NC(=O)c1cc2ccccc2o1)c1cccs1 (stereo not drawn),inconclusive: 5.34%,–
O=S(=O)(c1ccc(NCCCO)nc1)N1CCOCC1,inconclusive: 12.9%,–
Cc1ccc(NC(=S)N2CCC(C(N)=O)(N3CCCCC3)CC2)c(C)c1,inactive: -4.88%,–
COc1cc(NC(=O)c2ccno2)cc(C(=O)Nc2cccc(C(F)(F)F)c2)c1,inconclusive: 4.55%,–
O=C(O)c1ccc2c(c1)C(=O)N(c1ncccn1)C2=O,inactive: 2.95%,–
CC(CN1CCCCC1)OC(=O)c1cccc(F)c1 (stereo not drawn),–,"inconclusive: 0.058 µM [activator, full curve, poor fit]"
CCOC(=O)c1cccc(NC(=O)CCNS(=O)(=O)c2cc(Br)cnc2N)c1,inconclusive: -75.7%,–
Cc1ccc(-c2nc(S(=O)(=O)c3ccc(C)cc3)c(N(C)C)o2)cc1,inconclusive: 8.19%,–
O=C(Nc1ccc2ccccc2c1)N1CCCN(CCOc2ccccc2)CC1,inconclusive: 11.9%,–
CCN1CCN(CC(=O)Nc2nc3ccc(C)cc3s2)CC1,–,"inconclusive: 0.0041 µM [falling, full curve, poor fit]"
CC(C)c1ccc(N(CC(=O)NCc2ccco2)C(=O)CCC(=O)Nc2nccs2)cc1,inconclusive: 36.6%,–
O=C(Nc1ccccc1C(F)(F)F)N1CCCCCC1,inconclusive: -41.7%,–
O=S(=O)(NCCNc1nccc(C(F)(F)F)n1)c1ccccc1,inconclusive: 18.5%,–
O=C(c1ccc(=O)[nH]c1)N1CCN(S(=O)(=O)c2ccc3ccccc3c2)CC1,inactive: 19.4%,–
COc1ccc(C(=O)CCc2ccccc2)cc1,inconclusive: 21.2%,–
CC(C)COC(=O)C1[C@H]2C(=O)N(Cc3cccs3)C[C@]23C=C[C@H]1O3 (stereo partly drawn),inconclusive: -17.8%,–
CP(=O)(COC(=O)c1ccccc1)COC(=O)c1ccccc1,–,"inconclusive: 3.26 µM [falling, single point]"
O=C(CSc1nc2scc(-c3ccco3)c2c(=O)n1-c1ccccc1)NCC1CCCO1 (stereo not drawn),–,"inconclusive: 29.1 µM [falling, single point]"
C/C(=N\NC=O)c1ccncc1,inconclusive: 6.51%,–
O=S(=O)(NCc1ccco1)c1ccc(Cl)cc1Cl,inconclusive: -42.8%,–
CC(C)N1CCc2c(sc(NC(=O)c3ccc4ccccc4c3)c2C(N)=O)C1,inconclusive: -73.9%,–

Structure (SMILES),"lipid storage change, negative = inhibition",Potency
COc1ccccc1NC(=O)CN1CCC(n2nnc3cc(F)ccc32)CC1,–,"inconclusive: 6.51 µM [activator, single point]"
COc1ccc(-c2ccc(C#N)c(OC)n2)cc1,inconclusive: 26.5%,–
O=C(NCCc1ccc(Cl)cc1)C1COc2ccccc2O1 (stereo not drawn),–,"inconclusive: 18.4 µM [falling, single point]"
COc1ccc(NC(=O)CCn2ccnc2)c(OC)c1,inconclusive: 53.6%,–
Cc1ccc(OCCCC(=O)Nc2ccc(Cl)c(S(=O)(=O)N3CCOCC3)c2)cc1,–,"inconclusive: 29.1 µM [falling, partial curve, poor fit]"
COc1cccc(OC)c1C(=O)Nc1ccc2c(c1)CCCN2S(=O)(=O)c1ccc(C)cc1,–,"inconclusive: 29.1 µM [activator, partial curve]"
O=C(Cc1cccs1)Nc1cccnc1,inconclusive: 11.1%,–
COc1ccccc1CCNC(C)CCc1ccc(O)cc1 (stereo not drawn),–,"inconclusive: 0.58 µM [activator, single point]"
O=C(c1cc2c(ccc3ccccc32)oc1=O)N1CCCC1,inconclusive: 9.03%,–
CC(C)(C)c1ccc(Cn2nc(CC(=O)O)c3ccccc3c2=O)cc1,inconclusive: 39.1%,–
O=C(Cn1c(=O)c(=O)n(Cc2ccccc2)c2ccc(Cl)cc21)Nc1ccc(F)cc1F,inconclusive: -26.8%,–
CCCCCCC(O)(c1ccccc1)C(CN1CCOCC1)c1ccccc1 (stereo not drawn),inconclusive: 4.15%,–
CCn1c(Cc2ccccc2)nnc1SCC(=O)Nc1cc(C)on1,inconclusive: -40.6%,–
NC(=O)CSc1nnc(-c2ccc(S(=O)(=O)N3CCCCC3)cc2)n1-c1ccccc1,–,"inconclusive: 20.6 µM [rising, single point]"
Cc1cccc(NC(=O)Cn2c(=O)oc3ccccc32)c1,inconclusive: -42%,–
CSc1nc2c(c(=O)[nH]1)C(c1ccccc1)C1=C(CC(C)(C)CC1=O)N2 (stereo not drawn),inconclusive: 6.82%,–
CC1(c2nnc(-c3ccc(Cl)cc3)o2)CC(c2c(Cl)cccc2Cl)=NO1 (stereo not drawn),inconclusive: 51.2%,–
CCOc1ccc(NC(=O)c2ccc(NC(=O)Cc3n[nH]c(=O)c4ccccc34)cc2)cc1,inconclusive: 7.87%,–
COC(=O)c1ccc(NC2(C#N)C(=O)Nc3ccccc32)cc1 (stereo not drawn),inconclusive: 58.2%,–
COC(=O)CC1C(=O)NCCN1C(=O)CSc1nnc(Nc2ccc(OC)cc2)s1 (stereo not drawn),inconclusive: 26.9%,–
O=C(CSc1nc2ccccc2nc1N1CCCCC1)N1CCN(c2ccccc2)CC1,inconclusive: -55%,–
Cc1cc(C)c2nc(NNC(=O)c3cc(-c4cccs4)nc4ccccc34)sc2c1,inconclusive: 7.9%,–
COc1ccc(Cl)cc1NC(=O)COC(=O)CCCC1=NS(=O)(=O)c2ccccc2N1,inconclusive: -19%,–
Cc1ccccc1C(=O)N1CCN(c2ccc(NC(=O)c3cccc(OC(C)C)c3)cc2)CC1,–,"inconclusive: 0.731 µM [activator, single point]"
O=C(CSc1nc(-c2ccco2)cc(C(F)(F)F)n1)NC1CCCC1,inconclusive: 8.21% [at 9.22 µM],–
CN(c1ccc(OC(=O)c2ccc(-n3cncn3)c([N+](=O)[O-])c2)cc1)S(=O)(=O)c1ccccc1,–,"inconclusive: 1.84 µM [falling, full curve, poor fit]"

# One compound at a time, as listed above. Order of values: lipid storage change, negative = inhibition | Potency
# NC(=O)CSc1nnc(-c2ccc(S(=O)(=O)N3CCCCC3)cc2)n1-c1ccccc1 is listed as – | inconclusive: 20.6 µM [rising, single point]
# Cc1cc(C)c2nc(NNC(=O)c3cc(-c4cccs4)nc4ccccc34)sc2c1 is listed as inconclusive: 7.9% | –

# Quoted at random: 2 entries already listed.
Structure (SMILES),"lipid storage change, negative = inhibition",Potency
CN(c1ccc(OC(=O)c2ccc(-n3cncn3)c([N+](=O)[O-])c2)cc1)S(=O)(=O)c1ccccc1,–,"inconclusive: 1.84 µM [falling, full curve, poor fit]"
O=C(Cn1c(=O)c(=O)n(Cc2ccccc2)c2ccc(Cl)cc21)Nc1ccc(F)cc1F,inconclusive: -26.8%,–
